PubChem BioAssay AID1259308 – NCATS – 2017
Aim: 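Candidate targets for better recombinant protein yield in mammalian cells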 (primary screen). System: human HEK293 embryonic kidney cells stably expressing firefly luciferase (HEK-CMV-Luc2-Hygro). Reagents: single siRNA against human genes, 0.8 pmol siRNA per well. Timing: 72 h. Measured: 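Reporter luminescence and viable-cell signal on separate replicate plates, given as percent of non-targeting control and median/MAD z-scores, plus per-cell luciferase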. Scale: total luciferase, z-score and total luciferase, % of control: higher = more reporter protein produced; luciferase per cell, z-score: higher = more reporter output per viable cell; viable cells, % of control: higher = more viable cells. Active means: 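Active when the median/MAD z-score for overall luciferase is greater than 3; a gene was taken forward for validation with new siRNAs if at least two of its three siRNAs passed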. Meaning of the calls: active = raised luciferase; inactive = no rise.
In all, the deposit lists about 59,000 reagents; shown is an unselected part. About 1,510 of them (2.6%) count as active. 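Calls use total luciferase alone and ignore viability, so some active siRNAs may act by altering cell number.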 The numbers tell different reagents against one gene apart.

target | reagent | total luciferase, z-score | total luciferase, % of control | luciferase per cell, z-score | viable cells, % of control | Call
IL6ST (interleukin 6 cytokine family signal transducer) | 1 | -0.325 | 75.4 | -0.141 | 87.5 | inactive
IL6ST (interleukin 6 cytokine family signal transducer) | 2 | -0.65 | 68.9 | -0.875 | 97 | inactive
IL6ST (interleukin 6 cytokine family signal transducer) | 3 | -0.15 | 78.9 | -0.145 | 91.6 | inactive
LPCAT1 (lysophosphatidylcholine acyltransferase 1) | 1 | -0.419 | 73.5 | -0.676 | 98.2 | inactive
LPCAT1 (lysophosphatidylcholine acyltransferase 1) | 2 | 0.0141 | 82.2 | -0.534 | 106 | inactive
LPCAT1 (lysophosphatidylcholine acyltransferase 1) | 3 | 1.75 | 117 | 1.76 | 82 | inactive
USP17L2 (ubiquitin specific peptidase 17 like family member 2) | 1 | 1.2 | 106 | 2.01 | 69.6 | inactive
USP17L2 (ubiquitin specific peptidase 17 like family member 2) | 2 | -0.6 | 70 | -0.781 | 96 | inactive
USP17L2 (ubiquitin specific peptidase 17 like family member 2) | 3 | 0.797 | 97.7 | 0.351 | 99.6 | inactive
HMGCS2 (3-hydroxy-3-methylglutaryl-CoA synthase 2) | 1 | -0.0412 | 81.1 | -0.91 | 115 | inactive
HMGCS2 (3-hydroxy-3-methylglutaryl-CoA synthase 2) | 2 | -0.628 | 69.4 | -0.43 | 86.9 | inactive
HMGCS2 (3-hydroxy-3-methylglutaryl-CoA synthase 2) | 3 | -0.554 | 70.9 | -0.675 | 94.6 | inactive
AP2A2 (adaptor related protein complex 2 subunit alpha 2) | 1 | -0.0211 | 81.5 | -0.242 | 97 | inactive
AP2A2 (adaptor related protein complex 2 subunit alpha 2) | 2 | -0.599 | 70 | -0.685 | 93.7 | inactive
AP2A2 (adaptor related protein complex 2 subunit alpha 2) | 3 | 2.33 | 128 | 1.61 | 93.9 | inactive
H2AB2 (H2A.B variant histone 2) | 1 | 1.56 | 113 | 1.84 | 77.7 | inactive
H2AB2 (H2A.B variant histone 2) | 2 | 0.0183 | 82.3 | -0.209 | 97.1 | inactive
H2AB2 (H2A.B variant histone 2) | 3 | -0.118 | 79.5 | -0.267 | 95.4 | inactive
ZNF592 (zinc finger protein 592) | 1 | 1.76 | 117 | 1.29 | 93 | inactive
ZNF592 (zinc finger protein 592) | 2 | -0.354 | 74.9 | -0.635 | 98.9 | inactive
ZNF592 (zinc finger protein 592) | 3 | 1 | 102 | 0.368 | 103 | inactive
NMBR (neuromedin B receptor) | 1 | 0.479 | 91.4 | 1.49 | 69 | inactive
NMBR (neuromedin B receptor) | 2 | 0.488 | 91.6 | -0.0922 | 105 | inactive
NMBR (neuromedin B receptor) | 3 | -0.0356 | 81.2 | -0.0129 | 91 | inactive
RPAP2 (RNA polymerase II associated protein 2) | 1 | -0.365 | 74.6 | 0.329 | 76.5 | inactive
RPAP2 (RNA polymerase II associated protein 2) | 2 | -1.25 | 57 | -0.849 | 79.7 | inactive
RPAP2 (RNA polymerase II associated protein 2) | 3 | -0.431 | 73.3 | -0.905 | 104 | inactive
OR52I2 (olfactory receptor family 52 subfamily I member 2) | 1 | -2.61 | 30 | -2.44 | 63.8 | inactive
OR52I2 (olfactory receptor family 52 subfamily I member 2) | 2 | 2.31 | 128 | 1.6 | 93.7 | inactive
OR52I2 (olfactory receptor family 52 subfamily I member 2) | 3 | -0.598 | 70 | -0.591 | 91.4 | inactive
MYOM2 (myomesin 2) | 1 | -0.158 | 78.7 | 0.0946 | 85.8 | inactive
MYOM2 (myomesin 2) | 2 | 1.83 | 118 | 1.55 | 87.8 | inactive
MYOM2 (myomesin 2) | 3 | 1.62 | 114 | 1.43 | 87.4 | inactive
ARPC1A (actin related protein 2/3 complex subunit 1A) | 1 | 0.673 | 95.3 | 0.157 | 102 | inactive
ARPC1A (actin related protein 2/3 complex subunit 1A) | 2 | 0.0594 | 83.1 | -0.153 | 96.6 | inactive
ARPC1A (actin related protein 2/3 complex subunit 1A) | 3 | -2.29 | 36.4 | -1.87 | 66.5 | inactive
OR1I1 (olfactory receptor family 1 subfamily I member 1) | 1 | 0.487 | 91.6 | 0.32 | 94 | inactive
OR1I1 (olfactory receptor family 1 subfamily I member 1) | 2 | 1.6 | 114 | 1.11 | 95 | inactive
OR1I1 (olfactory receptor family 1 subfamily I member 1) | 3 | 0.738 | 96.6 | 0.929 | 84.5 | inactive
RASAL1 (RAS protein activator like 1) | 1 | -2.01 | 41.8 | -3.12 | 106 | inactive
RASAL1 (RAS protein activator like 1) | 2 | -1.65 | 49.1 | -1.28 | 76.7 | inactive
RASAL1 (RAS protein activator like 1) | 3 | 1.11 | 104 | 0.355 | 106 | inactive
CFAP47 (cilia and flagella associated protein 47) | 1 | -1.14 | 59.2 | -1.92 | 110 | inactive
CFAP47 (cilia and flagella associated protein 47) | 2 | -1.79 | 46.3 | -2.11 | 90.1 | inactive
CFAP47 (cilia and flagella associated protein 47) | 3 | -0.211 | 77.7 | -0.446 | 97.6 | inactive
CFAP47 (cilia and flagella associated protein 47) | 4 | 2.42 | 130 | 2.05 | 84.7 | inactive
CFAP47 (cilia and flagella associated protein 47) | 5 | -0.00612 | 81.8 | 0.553 | 79 | inactive
CFAP47 (cilia and flagella associated protein 47) | 6 | 0.778 | 97.4 | 0.248 | 102 | inactive
CFAP47 (cilia and flagella associated protein 47) | 7 | -1.19 | 58.2 | -0.867 | 81.7 | inactive
CFAP47 (cilia and flagella associated protein 47) | 8 | -0.54 | 71.1 | 0.339 | 72.7 | inactive
CFAP47 (cilia and flagella associated protein 47) | 9 | -1.32 | 55.7 | -1.26 | 86.7 | inactive
PHACTR2 (phosphatase and actin regulator 2) | 1 | 0.157 | 85 | 0.943 | 74.1 | inactive
PHACTR2 (phosphatase and actin regulator 2) | 2 | -0.8 | 66 | -0.587 | 86.1 | inactive
PHACTR2 (phosphatase and actin regulator 2) | 3 | 0.0792 | 83.5 | -0.31 | 101 | inactive
TXLNA (taxilin alpha) | 1 | -1.47 | 52.6 | -1.02 | 76.9 | inactive
TXLNA (taxilin alpha) | 2 | 0.262 | 87.1 | 0.0119 | 97 | inactive
TXLNA (taxilin alpha) | 3 | -0.521 | 71.5 | -1.03 | 105 | inactive

Laid out differently: 5 of the entries above.
| target | reagent | total luciferase, z-score | total luciferase, % of control | luciferase per cell, z-score | viable cells, % of control | Call |
| --- | --- | --- | --- | --- | --- | --- |
| CFAP47 (cilia and flagella associated protein 47) | 9 | -1.32 | 55.7 | -1.26 | 86.7 | inactive |
| PHACTR2 (phosphatase and actin regulator 2) | 1 | 0.157 | 85 | 0.943 | 74.1 | inactive |
| PHACTR2 (phosphatase and actin regulator 2) | 2 | -0.8 | 66 | -0.587 | 86.1 | inactive |
| PHACTR2 (phosphatase and actin regulator 2) | 3 | 0.0792 | 83.5 | -0.31 | 101 | inactive |
| TXLNA (taxilin alpha) | 1 | -1.47 | 52.6 | -1.02 | 76.9 | inactive |
